Experimental data as given in the supplement of paper PMC10849652.
The list shows a part of the results.

Amino acid sequences for entries named in this document (tags omitted). A change or cut given only in a name is not applied to a line headed by its entry.
UniProt Q8WUM0: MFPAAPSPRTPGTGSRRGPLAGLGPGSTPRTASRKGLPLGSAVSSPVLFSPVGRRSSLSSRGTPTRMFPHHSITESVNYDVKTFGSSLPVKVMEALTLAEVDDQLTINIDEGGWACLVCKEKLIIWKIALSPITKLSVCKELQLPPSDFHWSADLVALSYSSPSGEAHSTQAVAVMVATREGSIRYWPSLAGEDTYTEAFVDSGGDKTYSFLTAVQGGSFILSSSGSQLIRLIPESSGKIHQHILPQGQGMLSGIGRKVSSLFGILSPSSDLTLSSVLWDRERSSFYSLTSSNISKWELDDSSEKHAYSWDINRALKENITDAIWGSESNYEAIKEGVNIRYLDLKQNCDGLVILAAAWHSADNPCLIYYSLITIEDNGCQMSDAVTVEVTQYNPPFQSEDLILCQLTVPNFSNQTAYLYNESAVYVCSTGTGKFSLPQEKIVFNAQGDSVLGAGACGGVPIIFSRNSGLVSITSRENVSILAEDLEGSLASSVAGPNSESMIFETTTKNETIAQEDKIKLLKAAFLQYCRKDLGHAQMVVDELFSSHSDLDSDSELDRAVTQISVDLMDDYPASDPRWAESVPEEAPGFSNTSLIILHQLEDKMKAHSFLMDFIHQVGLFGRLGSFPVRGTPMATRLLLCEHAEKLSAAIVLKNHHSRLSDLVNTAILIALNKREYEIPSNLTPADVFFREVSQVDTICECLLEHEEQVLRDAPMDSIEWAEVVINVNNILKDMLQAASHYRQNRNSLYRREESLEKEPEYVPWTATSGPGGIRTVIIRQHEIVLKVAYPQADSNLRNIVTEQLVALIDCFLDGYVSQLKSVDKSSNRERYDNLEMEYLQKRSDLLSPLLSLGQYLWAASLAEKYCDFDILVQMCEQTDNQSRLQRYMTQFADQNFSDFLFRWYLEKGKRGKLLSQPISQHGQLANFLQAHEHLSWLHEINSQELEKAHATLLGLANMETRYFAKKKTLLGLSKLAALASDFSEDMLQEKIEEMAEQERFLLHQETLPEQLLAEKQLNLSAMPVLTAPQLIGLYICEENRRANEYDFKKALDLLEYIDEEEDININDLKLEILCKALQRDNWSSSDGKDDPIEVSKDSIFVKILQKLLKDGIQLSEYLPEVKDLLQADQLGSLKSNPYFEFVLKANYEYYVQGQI
UniProt Q9Y3C1: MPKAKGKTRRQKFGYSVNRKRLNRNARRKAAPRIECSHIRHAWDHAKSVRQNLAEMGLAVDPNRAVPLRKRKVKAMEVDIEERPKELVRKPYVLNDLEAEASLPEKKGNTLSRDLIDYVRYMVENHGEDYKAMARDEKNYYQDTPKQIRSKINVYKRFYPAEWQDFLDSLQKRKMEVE
UniProt Q96MG7: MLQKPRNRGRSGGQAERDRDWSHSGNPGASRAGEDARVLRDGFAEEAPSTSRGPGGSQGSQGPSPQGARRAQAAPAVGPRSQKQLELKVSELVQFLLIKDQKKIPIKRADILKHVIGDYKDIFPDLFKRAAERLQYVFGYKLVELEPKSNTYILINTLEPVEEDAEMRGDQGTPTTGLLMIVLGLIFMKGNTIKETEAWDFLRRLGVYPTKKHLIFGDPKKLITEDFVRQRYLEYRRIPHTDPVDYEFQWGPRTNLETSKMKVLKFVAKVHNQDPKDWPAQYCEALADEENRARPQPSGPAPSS
UniProt P46459: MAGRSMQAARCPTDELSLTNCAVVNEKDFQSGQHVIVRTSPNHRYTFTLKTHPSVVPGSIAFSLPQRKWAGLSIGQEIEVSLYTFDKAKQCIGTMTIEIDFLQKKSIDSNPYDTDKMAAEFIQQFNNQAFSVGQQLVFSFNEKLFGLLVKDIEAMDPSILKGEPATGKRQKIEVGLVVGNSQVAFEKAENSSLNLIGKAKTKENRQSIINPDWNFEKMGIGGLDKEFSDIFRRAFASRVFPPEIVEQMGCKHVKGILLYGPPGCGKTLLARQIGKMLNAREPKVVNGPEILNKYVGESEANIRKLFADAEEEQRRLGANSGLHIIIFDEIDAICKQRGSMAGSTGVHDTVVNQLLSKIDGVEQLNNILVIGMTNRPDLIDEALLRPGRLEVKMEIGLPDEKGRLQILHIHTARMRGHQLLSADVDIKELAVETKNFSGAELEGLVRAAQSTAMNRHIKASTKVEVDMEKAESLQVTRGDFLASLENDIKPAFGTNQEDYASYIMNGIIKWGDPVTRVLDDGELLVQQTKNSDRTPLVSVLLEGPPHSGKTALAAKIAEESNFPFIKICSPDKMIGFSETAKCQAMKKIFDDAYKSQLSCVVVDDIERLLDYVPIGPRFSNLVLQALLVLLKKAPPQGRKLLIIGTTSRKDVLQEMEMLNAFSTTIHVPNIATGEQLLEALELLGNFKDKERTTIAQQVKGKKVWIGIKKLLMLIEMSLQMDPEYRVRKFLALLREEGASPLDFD
UniProt Q13423: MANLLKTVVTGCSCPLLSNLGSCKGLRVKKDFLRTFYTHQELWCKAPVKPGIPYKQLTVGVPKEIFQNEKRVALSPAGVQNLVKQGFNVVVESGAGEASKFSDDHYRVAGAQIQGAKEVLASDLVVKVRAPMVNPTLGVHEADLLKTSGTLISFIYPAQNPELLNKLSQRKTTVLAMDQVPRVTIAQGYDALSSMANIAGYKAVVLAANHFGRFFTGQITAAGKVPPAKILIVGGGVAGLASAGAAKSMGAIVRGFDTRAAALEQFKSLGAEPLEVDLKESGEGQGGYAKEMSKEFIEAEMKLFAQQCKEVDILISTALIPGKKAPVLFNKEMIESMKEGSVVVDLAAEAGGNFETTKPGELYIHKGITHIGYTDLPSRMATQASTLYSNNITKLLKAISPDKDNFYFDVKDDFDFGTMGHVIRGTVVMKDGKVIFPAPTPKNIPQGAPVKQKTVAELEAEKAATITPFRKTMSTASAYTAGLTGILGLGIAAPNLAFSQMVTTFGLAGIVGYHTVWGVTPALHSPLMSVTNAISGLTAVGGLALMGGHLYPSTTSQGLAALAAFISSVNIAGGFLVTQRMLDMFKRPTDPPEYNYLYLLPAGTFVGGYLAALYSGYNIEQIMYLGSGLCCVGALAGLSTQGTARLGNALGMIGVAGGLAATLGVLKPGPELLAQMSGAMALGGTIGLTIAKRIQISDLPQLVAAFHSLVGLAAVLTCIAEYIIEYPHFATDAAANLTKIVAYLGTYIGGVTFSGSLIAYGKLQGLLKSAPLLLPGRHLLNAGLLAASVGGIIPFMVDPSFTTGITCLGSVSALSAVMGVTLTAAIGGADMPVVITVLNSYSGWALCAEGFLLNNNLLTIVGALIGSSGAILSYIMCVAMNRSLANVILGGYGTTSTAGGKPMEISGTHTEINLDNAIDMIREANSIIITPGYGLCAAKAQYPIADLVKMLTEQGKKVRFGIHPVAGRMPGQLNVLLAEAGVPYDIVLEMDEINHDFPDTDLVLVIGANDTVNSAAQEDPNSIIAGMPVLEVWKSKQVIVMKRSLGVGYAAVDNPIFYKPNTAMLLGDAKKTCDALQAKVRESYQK
UniProt Q9BQG2: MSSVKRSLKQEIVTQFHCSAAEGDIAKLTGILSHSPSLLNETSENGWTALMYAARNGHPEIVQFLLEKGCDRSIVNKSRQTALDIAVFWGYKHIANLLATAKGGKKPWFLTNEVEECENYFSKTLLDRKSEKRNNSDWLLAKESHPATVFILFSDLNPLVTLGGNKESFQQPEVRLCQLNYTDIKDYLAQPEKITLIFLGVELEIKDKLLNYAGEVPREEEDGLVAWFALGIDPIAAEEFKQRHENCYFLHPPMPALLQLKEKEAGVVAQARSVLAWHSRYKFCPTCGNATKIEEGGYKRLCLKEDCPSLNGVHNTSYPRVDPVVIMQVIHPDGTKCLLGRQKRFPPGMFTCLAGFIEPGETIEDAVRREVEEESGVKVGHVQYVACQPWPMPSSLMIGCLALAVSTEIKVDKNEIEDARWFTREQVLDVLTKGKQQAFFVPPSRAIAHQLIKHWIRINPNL
UniProt Q13287: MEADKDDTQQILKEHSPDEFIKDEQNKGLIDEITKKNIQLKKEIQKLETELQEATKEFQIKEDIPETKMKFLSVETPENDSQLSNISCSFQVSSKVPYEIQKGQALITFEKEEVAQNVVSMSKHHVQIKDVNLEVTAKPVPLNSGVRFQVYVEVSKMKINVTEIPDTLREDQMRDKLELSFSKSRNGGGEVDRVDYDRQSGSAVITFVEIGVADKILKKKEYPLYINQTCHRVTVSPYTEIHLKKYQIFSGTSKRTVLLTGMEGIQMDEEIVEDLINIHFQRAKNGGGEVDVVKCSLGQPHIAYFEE
UniProt P53384: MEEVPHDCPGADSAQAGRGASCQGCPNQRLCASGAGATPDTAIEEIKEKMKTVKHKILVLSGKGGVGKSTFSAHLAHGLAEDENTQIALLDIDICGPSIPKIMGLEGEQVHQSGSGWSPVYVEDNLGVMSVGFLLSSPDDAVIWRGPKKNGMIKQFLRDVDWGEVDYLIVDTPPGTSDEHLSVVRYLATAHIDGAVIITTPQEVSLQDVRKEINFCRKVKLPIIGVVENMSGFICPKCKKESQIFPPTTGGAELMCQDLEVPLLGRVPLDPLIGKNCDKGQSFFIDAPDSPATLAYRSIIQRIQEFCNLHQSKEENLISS
UniProt Q9UGY1: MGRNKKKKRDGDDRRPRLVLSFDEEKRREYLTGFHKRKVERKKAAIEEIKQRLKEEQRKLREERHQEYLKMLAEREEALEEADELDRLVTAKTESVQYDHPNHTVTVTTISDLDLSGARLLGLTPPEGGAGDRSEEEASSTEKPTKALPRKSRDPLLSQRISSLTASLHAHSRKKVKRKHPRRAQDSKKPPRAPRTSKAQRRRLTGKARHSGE
UniProt P80303: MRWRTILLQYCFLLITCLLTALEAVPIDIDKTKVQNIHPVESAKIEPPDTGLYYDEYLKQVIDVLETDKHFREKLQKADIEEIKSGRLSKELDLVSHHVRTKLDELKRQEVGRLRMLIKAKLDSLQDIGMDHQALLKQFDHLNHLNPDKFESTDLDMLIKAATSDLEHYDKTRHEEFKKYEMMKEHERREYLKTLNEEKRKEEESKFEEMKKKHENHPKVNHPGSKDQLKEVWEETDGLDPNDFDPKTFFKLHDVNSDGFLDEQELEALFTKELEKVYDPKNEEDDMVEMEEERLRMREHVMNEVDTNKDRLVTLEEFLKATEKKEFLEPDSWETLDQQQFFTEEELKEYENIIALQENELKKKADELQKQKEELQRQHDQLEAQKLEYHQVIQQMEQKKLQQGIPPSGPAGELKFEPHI
UniProt O43847: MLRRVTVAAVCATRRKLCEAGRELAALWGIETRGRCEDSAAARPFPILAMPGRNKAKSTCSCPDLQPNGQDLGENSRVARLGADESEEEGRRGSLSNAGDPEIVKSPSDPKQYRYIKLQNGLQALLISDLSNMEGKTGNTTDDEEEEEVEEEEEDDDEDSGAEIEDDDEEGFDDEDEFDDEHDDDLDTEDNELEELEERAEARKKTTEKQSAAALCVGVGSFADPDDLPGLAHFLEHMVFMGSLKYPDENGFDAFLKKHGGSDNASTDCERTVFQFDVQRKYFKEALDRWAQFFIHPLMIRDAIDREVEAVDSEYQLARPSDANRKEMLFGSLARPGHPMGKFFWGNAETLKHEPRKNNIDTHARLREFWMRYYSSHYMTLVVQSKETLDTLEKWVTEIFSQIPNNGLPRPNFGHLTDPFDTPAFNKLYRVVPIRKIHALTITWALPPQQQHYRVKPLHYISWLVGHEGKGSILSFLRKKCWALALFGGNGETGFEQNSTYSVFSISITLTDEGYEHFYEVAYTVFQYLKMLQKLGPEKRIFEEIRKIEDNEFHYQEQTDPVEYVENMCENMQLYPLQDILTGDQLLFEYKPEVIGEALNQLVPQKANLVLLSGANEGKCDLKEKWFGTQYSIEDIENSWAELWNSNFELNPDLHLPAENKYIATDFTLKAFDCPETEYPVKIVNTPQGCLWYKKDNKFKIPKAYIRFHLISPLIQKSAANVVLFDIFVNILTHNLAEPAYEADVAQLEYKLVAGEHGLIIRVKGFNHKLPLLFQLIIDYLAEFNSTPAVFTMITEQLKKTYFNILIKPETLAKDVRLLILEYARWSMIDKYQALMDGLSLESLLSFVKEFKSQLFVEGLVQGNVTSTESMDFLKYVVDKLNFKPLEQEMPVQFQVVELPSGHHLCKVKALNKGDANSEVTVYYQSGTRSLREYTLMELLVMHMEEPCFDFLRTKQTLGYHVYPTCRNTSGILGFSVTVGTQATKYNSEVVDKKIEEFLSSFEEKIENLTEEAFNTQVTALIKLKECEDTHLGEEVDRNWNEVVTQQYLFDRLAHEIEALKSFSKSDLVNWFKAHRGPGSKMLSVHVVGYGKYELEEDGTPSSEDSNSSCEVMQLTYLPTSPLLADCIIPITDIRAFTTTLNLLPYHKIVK

Columns and labels:
Assay in all cases: log2 fold change, soluble protein after heating vs DMSO (PISA); higher = thermal stabilisation; K562 lysate, 10 uM; active = over 0.2 and 3.5 SD of the protein, either way, in both replicates (recomputed)
erlotinib = compound: C#Cc1cccc(Nc2ncnc3cc(OCCOC)c(OCCOC)cc23)c1 [erlotinib]
Summary of the method: (§1)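 A 30 min treatment with 10 μM compound was applied to crude K562 extract at 1 mg/mL protein in PBS pH 7.4 with 1 mM MgCl2. Heating for 3 min spanned 48°C-58°C, after which aliquots were pooled, adjusted to 0.5% NP-40 at 4°C and spun at 21,000xg for 90 min. TMTpro 16plex LC-MS/MS of the supernatant, with channel sums equalised, gave values recorded as log-two fold change in thermal stability against solvent controls, from duplicates.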

[1] = compound: C/C(=N\NC(=O)C1=CC(=CC=C1)S(=O)(=O)N2CCOCC2)/C3=C(C=CC(=C3)Cl)O
Summary of the method: as §1

[2] = compound: C1=CC(=CC=C1C2=NC3=C(N2)C=C(C=C3)C(=O)N)OC4=CC=C(C=C4)Cl
Summary of the method: as §1

[3] = compound: C1=CC2=C(C=CC(=C2)/C=C\3/C(=O)NC(=NCC4=CC=CS4)S3)N=C1
Summary of the method: as §1

[4] = compound: C1=CC2=NC=CN=C2C=C1/C=C/3\C(=O)NC(=O)S3
Summary of the method: as §1

[5] = compound: C1=CC=C(C=C1)C2=NC(=C(N2)C3=CC=NC=C3)C4=CC(=C(C=C4)Cl)O
Summary of the method: as §1

[6] = compound: C1=CC=C2C(=C1)C3=NNC4=CC=CC(=C43)C2=O
Summary of the method: as §1

[7] = compound: C1CCN(C1)C(=O)NC2=CC=CC(=C2)NC3=NC=C(C(=N3)NCCC4=CN=CN4)Br
Summary of the method: as §1

[8] = compound: C1CN(CCC1(CC2=CC=C(C=C2)Cl)N)C3=NC=NC4=C3C=CN4
Summary of the method: as §1

IRAK-1-4 Inhibitor I = compound: C1COCCN1CCN2C3=CC=CC=C3N=C2NC(=O)C4=CC(=CC=C4)[N+](=O)[O-] [IRAK-1-4 Inhibitor I]
Summary of the method: as §1

ibrutinib = compound: C=CC(=O)N1CCC[C@@H](n2nc(-c3ccc(Oc4ccccc4)cc3)c3c(N)ncnc32)C1 [ibrutinib]
Summary of the method: as §1

[9] = compound: CC(=O)c1cnc2ccc(-c3cc(Cl)c(O)c(Cl)c3)nc2c1N[C@H]1CC[C@H](CN(C)C)CC1
Summary of the method: as §1

ralimetinib = compound: CC(C)(C)Cn1c(N)nc2ccc(-c3[nH]c(C(C)(C)C)nc3-c3ccc(F)cc3)nc21 [ralimetinib]
Summary of the method: as §1

[10] = compound: CC(C)(O)CC(=O)NCCn1ccc2ncnc(Nc3ccc(Oc4cccc(C(F)(F)F)c4)c(Cl)c3)c21
Summary of the method: as §1

[11] = compound: CC(C)C1=C2N=C(C=C(N2N=C1)NCC3=CC=CC=C3)NCCCCCCN
Summary of the method: as §1

[12] = compound: CC1=C(C(CC(=O)N1)C2=CC=C(C=C2)C(F)(F)F)C(=O)NC3=C(C=C4C(=C3)C=NN4)F
Summary of the method: as §1

[13] = compound: CC1=C(C2=C(C=C1)C(=O)C3=CC=CC=C3N2CCCN)C
Summary of the method: as §1

[14] = compound: CC1=C(C=C(C=C1)NC(=O)C2=CC(=CC=C2)C(C)(C)C#N)NC3=CC4=C(C=C3)N=CN(C4=O)C
Summary of the method: as §1

[15] = compound: CC1=C(C=C(C=C1)NC(=O)C2=CC(=CC=C2)N(C)C)NC(=O)C3=CC=C(C=C3)O
Summary of the method: as §1

[16] = compound: CC1=CC=C(C=C1)SC2=C3C=C(SC3=CN=C2)C(=O)N
Summary of the method: as §1

Measured: log2 fold change

NUP133 (UniProt Q8WUM0)
inactive: erlotinib 0.01 | [1] -0.016 | [2] 0.006 | [3] 0.019 | [4] -0.018 | [5] 0.017 | [6] -0.023 | [7] -0.04 | [8] 0.015 | IRAK-1-4 Inhibitor I 0.026 | ibrutinib 0.016 | [9] -0.015 | ralimetinib 0.006 | [10] 0.045 | [11] -0.01 | [12] 0.064 | [13] -0.02 | [14] 0.01 | [15] 0.009 | [16] -0.002

NOC2L (UniProt Q9Y3T9)
inactive: erlotinib -0.036 | [1] -0.013 | [2] -0.018 | [3] -0.029 | [4] 0.027 | [5] 0.031 | [6] 0.077 | [7] -0.009 | [8] -0.004 | IRAK-1-4 Inhibitor I -0.046 | ibrutinib -0.047 | [9] 0.015 | ralimetinib 0.047 | [10] -0.005 | [11] 0.026 | [12] 0.014 | [13] -0.074 | [14] -0.02 | [15] 0.021 | [16] 0.014

NOP16 (UniProt Q9Y3C1)
inactive: erlotinib 0.035 | [1] 0.009 | [2] 0.038 | [3] -0.025 | [4] -0.012 | [5] 0.005 | [6] 0.037 | [7] 0.023 | [8] -0.018 | IRAK-1-4 Inhibitor I -0.002 | ibrutinib -0.007 | [9] -0.015 | ralimetinib 0.003 | [10] 0.002 | [11] -0.027 | [12] 0.011 | [13] 0.04 | [14] -0.036 | [15] -0.023 | [16] 0.014

NSMCE3 (UniProt Q96MG7)
inactive: erlotinib 0.065 | [1] 0.016 | [2] 0.036 | [3] 0 | [4] -0.022 | [5] -0.031 | [6] -0.038 | [7] -0.059 | [8] 0.067 | IRAK-1-4 Inhibitor I -0.017 | ibrutinib -0.002 | [9] 0.013 | ralimetinib 0 | [10] -0.03 | [11] -0.003 | [12] 0.015 | [13] -0.064 | [14] 0.02 | [15] 0.032 | [16] 0.029

NSF (UniProt P46459)
inactive: erlotinib -0.019 | [1] 0.01 | [2] -0.037 | [3] -0.001 | [4] 0.005 | [5] 0.003 | [6] -0.029 | [7] -0.006 | [8] -0.013 | IRAK-1-4 Inhibitor I -0.01 | ibrutinib 0.002 | [9] 0.005 | ralimetinib 0.008 | [10] 0.005 | [11] -0.005 | [12] 0.003 | [13] 0.011 | [14] -0.021 | [15] 0.004 | [16] 0.002

Taken from above (2 entries):
NOC2L (UniProt Q9Y3T9)
inactive: erlotinib -0.036 | [1] -0.013 | [2] -0.018 | [3] -0.029 | [4] 0.027 | [5] 0.031 | [6] 0.077 | [7] -0.009 | [8] -0.004 | IRAK-1-4 Inhibitor I -0.046 | ibrutinib -0.047 | [9] 0.015 | ralimetinib 0.047 | [10] -0.005 | [11] 0.026 | [12] 0.014 | [13] -0.074 | [14] -0.02 | [15] 0.021 | [16] 0.014

NOP16 (UniProt Q9Y3C1)
inactive: erlotinib 0.035 | [1] 0.009 | [2] 0.038 | [3] -0.025 | [4] -0.012 | [5] 0.005 | [6] 0.037 | [7] 0.023 | [8] -0.018 | IRAK-1-4 Inhibitor I -0.002 | ibrutinib -0.007 | [9] -0.015 | ralimetinib 0.003 | [10] 0.002 | [11] -0.027 | [12] 0.011 | [13] 0.04 | [14] -0.036 | [15] -0.023 | [16] 0.014

(continued)

NSDHL (UniProt Q15738)
inactive: erlotinib 0.007 | [1] 0.119 | [2] -0.047 | [3] 0 | [4] 0.026 | [5] -0.002 | [6] 0.014 | [7] -0.043 | [8] 0.037 | IRAK-1-4 Inhibitor I 0.057 | ibrutinib 0.063 | [9] -0.009 | ralimetinib -0.021 | [10] 0.005 | [11] -0.01 | [12] -0.006 | [13] 0.007 | [14] -0.013 | [15] -0.05 | [16] -0.006

NRAS (UniProt P01111)
inactive: erlotinib -0.015 | [1] -0.135 | [2] -0.019 | [3] 0.012 | [4] 0.012 | [5] -0.025 | [6] 0.026 | [7] 0.036 | [8] 0.065 | IRAK-1-4 Inhibitor I -0.016 | ibrutinib 0.031 | [9] 0.002 | ralimetinib 0.001 | [10] 0.014 | [11] -0.011 | [12] 0.004 | [13] 0.003 | [14] -0.055 | [15] -0.009 | [16] 0.031

NNT (UniProt Q13423)
inactive: erlotinib -0.027 | [1] 0.013 | [2] -0.014 | [3] -0.012 | [4] -0.006 | [5] -0.008 | [6] -0.033 | [7] 0 | [8] 0.031 | IRAK-1-4 Inhibitor I -0.026 | ibrutinib 0.012 | [9] -0.016 | ralimetinib -0.095 | [10] -0.01 | [11] -0.05 | [12] -0.011 | [13] -0.019 | [14] -0.007 | [15] 0.01 | [16] -0.009

NUDT12 (UniProt Q9BQG2)
inactive: erlotinib 0.021 | [1] 0.054 | [2] 0.024 | [3] -0.003 | [4] 0.041 | [5] 0.015 | [6] 0.078 | [7] -0.024 | [8] 0.024 | IRAK-1-4 Inhibitor I 0.022 | ibrutinib -0.004 | [9] 0.025 | ralimetinib -0.021 | [10] -0.035 | [11] -0.077 | [12] -0.035 | [13] 0.06 | [14] 0.047 | [15] -0.003 | [16] -0.029

NMI (UniProt Q13287)
inactive: erlotinib 0.011 | [1] -0.033 | [2] 0.003 | [3] 0.002 | [4] -0.023 | [5] 0.019 | [6] 0.009 | [7] -0.002 | [8] 0.006 | IRAK-1-4 Inhibitor I -0.003 | ibrutinib 0.016 | [9] -0.021 | ralimetinib -0.022 | [10] 0.04 | [11] 0.018 | [12] -0.024 | [13] 0.009 | [14] 0.009 | [15] 0.005 | [16] -0.019

NUBP1 (UniProt P53384)
inactive: erlotinib 0.003 | [1] 0.013 | [2] -0.047 | [3] -0.038 | [4] 0.015 | [5] 0.03 | [6] 0.026 | [7] 0.031 | [8] -0.005 | IRAK-1-4 Inhibitor I 0.034 | ibrutinib 0.027 | [9] 0.042 | ralimetinib -0.054 | [10] -0.033 | [11] 0.004 | [12] -0.005 | [13] -0.012 | [14] 0.013 | [15] -0.03 | [16] 0.01

NOL12 (UniProt Q9UGY1)
inactive: erlotinib -0.163 | [1] 0.039 | [2] -0.082 | [3] 0.045 | [4] -0.043 | [5] -0.014 | [6] 0.052 | [7] 0.049 | [8] -0.041 | IRAK-1-4 Inhibitor I -0.01 | ibrutinib 0.099 | [9] 0.003 | ralimetinib 0.11 | [10] 0.077 | [11] -0.034 | [12] -0.22 | [13] -0.044 | [14] 0.099 | [15] -0.024 | [16] 0.026

NUMB (UniProt P49757)
inactive: erlotinib -0.029 | [1] 0.01 | [2] 0.044 | [3] -0.052 | [4] -0.009 | [5] -0.009 | [6] -0.029 | [7] -0.107 | [8] -0.043 | IRAK-1-4 Inhibitor I 0.022 | ibrutinib 0.03 | [9] 0.005 | ralimetinib 0.021 | [10] -0.055 | [11] 0.003 | [12] -0.007 | [13] -0.015 | [14] 0.081 | [15] 0.004 | [16] -0.005

NRBF2 (UniProt Q96F24)
inactive: erlotinib 0.038 | [1] -0.073 | [2] -0.033 | [3] -0.016 | [4] -0.025 | [5] 0.024 | [6] 0.057 | [7] 0.049 | [8] -0.014 | IRAK-1-4 Inhibitor I -0.065 | ibrutinib -0.013 | [9] 0.011 | ralimetinib 0.005 | [10] 0.027 | [11] 0.026 | [12] -0.001 | [13] -0.031 | [14] 0.005 | [15] -0.024 | [16] 0.006

NUCB2 (UniProt P80303)
inactive: erlotinib -0.003 | [1] 0.018 | [2] 0.014 | [3] -0.018 | [4] 0.011 | [5] -0.015 | [6] -0.017 | [7] 0.003 | [8] 0.003 | IRAK-1-4 Inhibitor I 0.007 | ibrutinib 0.025 | [9] 0.002 | ralimetinib -0.023 | [10] 0.01 | [11] 0.009 | [12] 0.04 | [13] -0.006 | [14] 0 | [15] -0.015 | [16] -0.014

NRDC isoform 2 (UniProt O43847)
inactive: erlotinib 0.002 | [1] 0.011 | [2] 0.002 | [3] -0.014 | [4] 0.005 | [5] -0.001 | [6] 0.014 | [7] 0.006 | [8] -0.003 | IRAK-1-4 Inhibitor I 0.008 | ibrutinib -0.009 | [9] 0.001 | ralimetinib 0.012 | [10] -0.004 | [11] -0.012 | [12] 0.002 | [13] -0.003 | [14] 0.004 | [15] -0.006 | [16] 0.009
